The numbers were not newly measured in paper PMC11718131 (Communications Biology, 2025), which cites them from elsewhere.

The term Ki denotes the dissociation constant of the complex between target and ligand, obtained from inhibition or displacement.

This data set has as its target wildtype (WT) CA2. As to conditions: read-out: Ki, potency of inhibition of WT CA2 activity; cited from earlier work.

For the compound `CC(=O)Nc1nnc(S(N)(=O)=O)s1` [ACZ, acetazolamide], the Ki is 12 nM.
